Results reported in the supplement of paper PMC10849652.
The other results are listed elsewhere or left out.

Chains of the proteins cited; added tags and fusions are not shown. Lines headed by an entry give the natural chain unless they say otherwise; changes in a name come on top.
UniProt Q16881, whole entry, looked up: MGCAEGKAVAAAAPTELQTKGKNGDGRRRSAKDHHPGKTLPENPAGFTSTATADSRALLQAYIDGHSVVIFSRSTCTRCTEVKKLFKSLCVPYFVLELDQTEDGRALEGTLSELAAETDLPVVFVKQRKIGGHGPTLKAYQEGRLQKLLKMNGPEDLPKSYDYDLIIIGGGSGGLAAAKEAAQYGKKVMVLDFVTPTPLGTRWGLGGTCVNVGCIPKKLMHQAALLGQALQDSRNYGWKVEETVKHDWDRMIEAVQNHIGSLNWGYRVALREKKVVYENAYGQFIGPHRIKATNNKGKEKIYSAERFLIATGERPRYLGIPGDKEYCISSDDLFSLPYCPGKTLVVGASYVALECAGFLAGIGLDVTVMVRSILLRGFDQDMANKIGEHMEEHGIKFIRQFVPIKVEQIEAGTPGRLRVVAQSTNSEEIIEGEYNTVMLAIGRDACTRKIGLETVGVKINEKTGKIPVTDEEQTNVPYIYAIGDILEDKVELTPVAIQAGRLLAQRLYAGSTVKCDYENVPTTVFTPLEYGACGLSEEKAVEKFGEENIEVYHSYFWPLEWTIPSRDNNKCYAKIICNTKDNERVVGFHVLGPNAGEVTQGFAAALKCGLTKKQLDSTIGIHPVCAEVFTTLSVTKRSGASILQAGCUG
UniProt P61088: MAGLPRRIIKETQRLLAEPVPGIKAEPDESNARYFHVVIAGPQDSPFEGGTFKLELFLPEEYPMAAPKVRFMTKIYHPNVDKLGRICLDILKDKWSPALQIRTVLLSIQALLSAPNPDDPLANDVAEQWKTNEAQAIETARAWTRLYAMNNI
UniProt P26368, whole entry, looked up: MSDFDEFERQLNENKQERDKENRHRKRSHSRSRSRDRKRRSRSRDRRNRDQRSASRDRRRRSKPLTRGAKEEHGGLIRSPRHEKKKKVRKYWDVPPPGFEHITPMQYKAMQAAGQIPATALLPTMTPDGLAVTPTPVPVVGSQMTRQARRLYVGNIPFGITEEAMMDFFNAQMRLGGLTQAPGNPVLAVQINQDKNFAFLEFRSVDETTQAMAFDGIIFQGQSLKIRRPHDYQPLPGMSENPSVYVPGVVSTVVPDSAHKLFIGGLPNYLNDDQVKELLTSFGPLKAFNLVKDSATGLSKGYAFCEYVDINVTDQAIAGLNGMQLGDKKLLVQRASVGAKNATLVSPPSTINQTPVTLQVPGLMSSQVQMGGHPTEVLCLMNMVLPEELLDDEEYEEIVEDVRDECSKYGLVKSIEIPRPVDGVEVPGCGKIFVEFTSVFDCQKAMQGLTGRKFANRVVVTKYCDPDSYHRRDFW
UniProt P22314: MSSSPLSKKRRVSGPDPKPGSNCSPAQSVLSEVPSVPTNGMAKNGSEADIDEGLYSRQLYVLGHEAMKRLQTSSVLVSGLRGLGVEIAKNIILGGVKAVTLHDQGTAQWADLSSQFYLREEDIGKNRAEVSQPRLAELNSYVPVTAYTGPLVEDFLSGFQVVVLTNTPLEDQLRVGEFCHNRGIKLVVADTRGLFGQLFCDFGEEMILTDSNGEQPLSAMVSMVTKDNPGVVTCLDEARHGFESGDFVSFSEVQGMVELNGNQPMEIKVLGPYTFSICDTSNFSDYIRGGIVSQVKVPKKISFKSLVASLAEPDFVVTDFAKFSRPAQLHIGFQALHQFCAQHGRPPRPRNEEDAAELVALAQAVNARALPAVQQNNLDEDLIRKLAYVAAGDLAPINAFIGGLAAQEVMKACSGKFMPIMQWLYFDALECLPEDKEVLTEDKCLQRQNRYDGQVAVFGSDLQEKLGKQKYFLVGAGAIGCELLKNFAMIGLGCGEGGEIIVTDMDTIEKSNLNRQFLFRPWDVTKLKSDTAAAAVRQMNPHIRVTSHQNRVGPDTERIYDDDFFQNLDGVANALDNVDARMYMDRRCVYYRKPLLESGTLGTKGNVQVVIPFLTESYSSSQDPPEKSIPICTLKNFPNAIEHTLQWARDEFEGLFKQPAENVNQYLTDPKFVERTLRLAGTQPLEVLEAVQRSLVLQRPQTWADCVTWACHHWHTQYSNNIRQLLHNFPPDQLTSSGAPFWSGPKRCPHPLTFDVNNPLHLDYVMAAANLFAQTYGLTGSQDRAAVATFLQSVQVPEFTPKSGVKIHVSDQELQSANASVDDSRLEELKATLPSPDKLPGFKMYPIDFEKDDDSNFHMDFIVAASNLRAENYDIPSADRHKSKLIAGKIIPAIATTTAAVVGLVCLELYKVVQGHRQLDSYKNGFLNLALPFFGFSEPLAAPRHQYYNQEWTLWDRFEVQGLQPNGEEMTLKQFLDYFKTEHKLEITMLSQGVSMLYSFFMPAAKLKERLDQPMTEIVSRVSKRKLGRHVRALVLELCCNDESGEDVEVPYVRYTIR
UniProt A6NHL2: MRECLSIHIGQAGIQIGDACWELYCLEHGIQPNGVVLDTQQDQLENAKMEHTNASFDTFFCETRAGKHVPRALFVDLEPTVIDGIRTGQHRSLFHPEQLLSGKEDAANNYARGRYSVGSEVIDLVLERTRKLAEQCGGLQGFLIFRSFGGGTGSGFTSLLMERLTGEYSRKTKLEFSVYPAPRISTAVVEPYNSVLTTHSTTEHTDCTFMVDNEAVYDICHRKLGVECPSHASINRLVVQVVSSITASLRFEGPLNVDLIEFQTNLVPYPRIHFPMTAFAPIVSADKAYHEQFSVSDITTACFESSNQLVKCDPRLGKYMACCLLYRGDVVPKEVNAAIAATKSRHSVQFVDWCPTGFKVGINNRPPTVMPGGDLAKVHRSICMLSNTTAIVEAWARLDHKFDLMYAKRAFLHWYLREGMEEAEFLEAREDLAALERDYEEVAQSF
UniProt Q6NXR4: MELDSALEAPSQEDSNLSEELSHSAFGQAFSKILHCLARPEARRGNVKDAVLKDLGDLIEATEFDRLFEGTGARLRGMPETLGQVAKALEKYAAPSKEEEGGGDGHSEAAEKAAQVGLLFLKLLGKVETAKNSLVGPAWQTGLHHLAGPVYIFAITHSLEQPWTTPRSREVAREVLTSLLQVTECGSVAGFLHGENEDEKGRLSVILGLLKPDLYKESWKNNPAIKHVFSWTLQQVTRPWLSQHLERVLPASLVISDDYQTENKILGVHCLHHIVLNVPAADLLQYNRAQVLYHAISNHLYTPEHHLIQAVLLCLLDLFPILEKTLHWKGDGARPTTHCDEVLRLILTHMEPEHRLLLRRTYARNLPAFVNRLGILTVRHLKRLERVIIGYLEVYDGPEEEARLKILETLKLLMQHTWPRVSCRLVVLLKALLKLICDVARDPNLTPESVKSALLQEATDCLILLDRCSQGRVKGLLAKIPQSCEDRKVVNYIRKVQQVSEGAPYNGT
UniProt Q6PID6, whole entry, looked up: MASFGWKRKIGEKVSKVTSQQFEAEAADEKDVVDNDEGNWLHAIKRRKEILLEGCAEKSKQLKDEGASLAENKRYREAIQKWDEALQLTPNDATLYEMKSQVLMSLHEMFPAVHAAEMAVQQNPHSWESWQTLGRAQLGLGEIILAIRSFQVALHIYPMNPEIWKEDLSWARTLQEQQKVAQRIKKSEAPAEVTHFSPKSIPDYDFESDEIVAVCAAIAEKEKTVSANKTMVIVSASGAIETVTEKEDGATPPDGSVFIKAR
UniProt Q9NZ09: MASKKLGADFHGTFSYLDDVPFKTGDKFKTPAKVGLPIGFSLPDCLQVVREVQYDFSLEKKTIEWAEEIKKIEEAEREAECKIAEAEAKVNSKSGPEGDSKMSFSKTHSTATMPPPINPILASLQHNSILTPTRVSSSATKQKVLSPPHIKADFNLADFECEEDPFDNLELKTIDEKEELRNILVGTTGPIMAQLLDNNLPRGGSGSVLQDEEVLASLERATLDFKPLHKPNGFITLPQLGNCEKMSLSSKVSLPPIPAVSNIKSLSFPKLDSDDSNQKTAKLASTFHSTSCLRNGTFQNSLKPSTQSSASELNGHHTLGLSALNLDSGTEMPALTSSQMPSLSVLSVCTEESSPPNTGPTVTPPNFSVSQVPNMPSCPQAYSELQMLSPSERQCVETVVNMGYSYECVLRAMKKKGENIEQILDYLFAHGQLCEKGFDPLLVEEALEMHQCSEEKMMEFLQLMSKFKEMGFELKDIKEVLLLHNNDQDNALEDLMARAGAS
UniProt Q12999: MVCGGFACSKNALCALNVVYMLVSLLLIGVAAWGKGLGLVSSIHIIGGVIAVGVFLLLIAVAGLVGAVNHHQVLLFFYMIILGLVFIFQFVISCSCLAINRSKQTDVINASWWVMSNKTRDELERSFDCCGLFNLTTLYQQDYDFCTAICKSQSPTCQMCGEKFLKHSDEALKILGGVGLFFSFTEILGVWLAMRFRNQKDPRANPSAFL
UniProt Q9Y385: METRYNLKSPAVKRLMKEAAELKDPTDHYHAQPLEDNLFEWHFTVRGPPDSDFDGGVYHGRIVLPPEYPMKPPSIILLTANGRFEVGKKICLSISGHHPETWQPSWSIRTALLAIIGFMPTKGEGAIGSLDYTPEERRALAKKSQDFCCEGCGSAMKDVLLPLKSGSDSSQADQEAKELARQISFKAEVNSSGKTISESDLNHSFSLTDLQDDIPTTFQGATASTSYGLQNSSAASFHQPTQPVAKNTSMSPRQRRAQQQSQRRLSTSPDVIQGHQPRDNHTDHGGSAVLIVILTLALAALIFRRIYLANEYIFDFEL
UniProt O43156, whole entry, looked up: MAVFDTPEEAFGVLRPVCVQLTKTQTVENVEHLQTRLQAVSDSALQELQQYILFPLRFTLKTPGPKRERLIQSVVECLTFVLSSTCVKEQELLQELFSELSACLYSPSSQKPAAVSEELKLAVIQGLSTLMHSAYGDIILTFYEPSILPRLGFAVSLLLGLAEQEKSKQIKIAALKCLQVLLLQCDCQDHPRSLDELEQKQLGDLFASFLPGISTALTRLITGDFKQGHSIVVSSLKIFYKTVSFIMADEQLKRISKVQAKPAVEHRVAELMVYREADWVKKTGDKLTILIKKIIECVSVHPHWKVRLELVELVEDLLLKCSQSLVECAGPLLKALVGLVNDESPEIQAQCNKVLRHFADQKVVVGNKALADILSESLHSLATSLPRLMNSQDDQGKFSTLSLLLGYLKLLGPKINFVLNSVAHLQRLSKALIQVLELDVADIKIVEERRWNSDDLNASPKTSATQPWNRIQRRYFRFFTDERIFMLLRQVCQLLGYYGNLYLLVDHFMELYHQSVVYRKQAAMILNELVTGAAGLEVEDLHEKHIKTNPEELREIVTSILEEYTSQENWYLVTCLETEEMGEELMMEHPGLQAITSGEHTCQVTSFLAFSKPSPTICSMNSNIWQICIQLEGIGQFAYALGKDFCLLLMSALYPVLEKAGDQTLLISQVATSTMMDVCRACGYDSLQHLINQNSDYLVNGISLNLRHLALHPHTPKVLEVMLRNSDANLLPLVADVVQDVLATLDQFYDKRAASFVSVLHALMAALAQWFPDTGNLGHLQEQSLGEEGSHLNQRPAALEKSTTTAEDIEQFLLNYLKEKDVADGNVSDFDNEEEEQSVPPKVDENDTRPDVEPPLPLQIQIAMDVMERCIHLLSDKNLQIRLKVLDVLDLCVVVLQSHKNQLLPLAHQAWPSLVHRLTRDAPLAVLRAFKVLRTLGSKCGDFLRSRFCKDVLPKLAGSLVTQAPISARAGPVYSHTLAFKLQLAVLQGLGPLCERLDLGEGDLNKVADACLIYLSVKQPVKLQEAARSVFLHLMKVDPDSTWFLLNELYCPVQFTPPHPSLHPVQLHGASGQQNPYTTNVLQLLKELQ
UniProt Q16762: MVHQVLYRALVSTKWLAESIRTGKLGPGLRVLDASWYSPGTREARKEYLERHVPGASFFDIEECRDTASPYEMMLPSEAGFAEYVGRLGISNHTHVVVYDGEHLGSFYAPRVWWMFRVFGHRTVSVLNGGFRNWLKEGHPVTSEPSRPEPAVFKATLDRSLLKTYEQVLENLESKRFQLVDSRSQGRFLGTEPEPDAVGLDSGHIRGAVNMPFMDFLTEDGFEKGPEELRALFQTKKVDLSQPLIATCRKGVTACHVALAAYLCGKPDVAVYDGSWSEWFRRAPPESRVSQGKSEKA
UniProt Q9NY65, whole entry, looked up: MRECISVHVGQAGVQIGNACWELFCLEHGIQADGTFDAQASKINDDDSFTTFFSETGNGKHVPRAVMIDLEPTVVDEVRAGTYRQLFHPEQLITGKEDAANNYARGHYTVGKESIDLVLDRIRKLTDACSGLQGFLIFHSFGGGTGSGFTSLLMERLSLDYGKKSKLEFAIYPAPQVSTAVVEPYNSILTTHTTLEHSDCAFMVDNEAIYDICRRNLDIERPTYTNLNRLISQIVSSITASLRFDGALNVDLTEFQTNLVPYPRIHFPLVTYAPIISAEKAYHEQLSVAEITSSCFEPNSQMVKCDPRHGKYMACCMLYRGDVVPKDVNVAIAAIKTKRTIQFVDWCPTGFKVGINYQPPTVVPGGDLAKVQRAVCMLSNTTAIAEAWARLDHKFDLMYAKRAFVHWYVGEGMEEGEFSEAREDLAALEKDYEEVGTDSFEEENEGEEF

Assays:
Assay in all cases: log2 fold change, soluble protein after heating vs DMSO (PISA); higher = thermal stabilisation; K562 cells, 10 uM, 30 min; active = over 0.2 and 3.5 SD of the protein, either way, in both replicates (recomputed)
[1] = compound: CS(=O)(=O)c1ccc(-c2cnc(N)c(C(=O)Nc3ccccc3)n2)cc1
Method in brief: (§1)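 K562 cells at 2×10^6 cells/mL were exposed to 10 μM compound for 30 min, then aliquots were heated for 3 min across 48°C-58°C, pooled, and extracted in PBS containing 0.5% NP-40 at 4°C. The supernatant after 21,000xg for 90 min was taken as soluble protein and measured by TMTpro 16plex LC-MS/MS with channel sums equalised. Thermal stability is reported relative to control samples, with values from duplicates. Fold changes are given on a log2 scale.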

crizotinib = compound: C[C@@H](Oc1cc(-c2cnn(C3CCNCC3)c2)cnc1N)c1c(Cl)ccc(F)c1Cl [crizotinib]
Method in brief: as §1

[2] = compound: C[C@@H]1COCCN1C2=NC(=NC(=C2)C3(CC3)S(=O)(=O)C)C4=C5C=CNC5=CC=C4
Method in brief: as §1

[3] = compound: C[C@H](C1=CC=C(C=C1)C(=O)NC2=C3C=CNC3=NC=C2)N
Method in brief: as §1

gandotinib = compound: Cc1cc(Nc2cc(CN3CCOCC3)c3nc(C)c(Cc4ccc(Cl)cc4F)n3n2)n[nH]1 [gandotinib]
Method in brief: as §1

[4] = compound: Cc1cc(SCc2sc(-c3ccc(C(F)(F)F)cc3)nc2C)ccc1OCC(=O)O
Method in brief: as §1

doramapimod = compound: Cc1ccc(-n2nc(C(C)(C)C)cc2NC(=O)Nc2ccc(OCCN3CCOCC3)c3ccccc23)cc1 [doramapimod]
Method in brief: as §1

ispinesib = compound: Cc1ccc(C(=O)N(CCCN)[C@@H](c2nc3cc(Cl)ccc3c(=O)n2Cc2ccccc2)C(C)C)cc1 [ispinesib]
Method in brief: as §1

duvelisib = compound: C[C@H](Nc1ncnc2nc[nH]c12)c1cc2cccc(Cl)c2c(=O)n1-c1ccccc1 [duvelisib]
Method in brief: as §1

tozasertib = compound: Cc1cc(Nc2cc(N3CCN(C)CC3)nc(Sc3ccc(NC(=O)C4CC4)cc3)n2)n[nH]1 [tozasertib]
Method in brief: as §1

Measured: log2 fold change

TXNRD1 (UniProt Q16881)
inactive: [1] 0.075 | crizotinib -0.043 | [2] 0.079 | [3] -0.053 | gandotinib -0.045 | [4] -0.007 | doramapimod -0.028 | ispinesib -0.009

UBE2N (UniProt P61088)
inactive: [1] 0.042 | crizotinib 0.168 | [2] 0.129 | [3] -0.062 | duvelisib 0.062 | gandotinib -0.056 | tozasertib 0.057 | [4] 0.017 | doramapimod -0.119 | ispinesib 0.126

U2AF2 (UniProt P26368)
inactive: [1] 0.036 | crizotinib -0.101 | [2] 0.057 | [3] -0.101 | gandotinib 0.036 | [4] 0.063 | doramapimod -0.006 | ispinesib 0.014

UBA1 (UniProt P22314)
inactive: [1] 0.127 | crizotinib -0.338 | [2] 0.091 | [3] 0.017 | gandotinib -0.068 | [4] 0.148 | doramapimod -0.031 | ispinesib -0.11

TUBAL3 (UniProt A6NHL2)
inactive: [1] -0.097 | crizotinib -0.128 | [2] 0.161 | [3] 0.02 | gandotinib -0.165 | [4] -0.02 | doramapimod 0.113 | ispinesib -0.108

TTI2 (UniProt Q6NXR4)
inactive: [1] -0.066 | crizotinib -0.155 | [2] 0.028 | [3] 0.121 | [4] 0.142 | doramapimod 0.013 | ispinesib -0.204

UBE2K (UniProt D6RDM7)
inactive: [1] 0.214 | crizotinib 0.074 | [2] 0.193 | [3] 0.02 | duvelisib 0.243 | tozasertib -0.134 | [4] -0.379 | doramapimod 0.007 | ispinesib -0.101

TTC33 (UniProt Q6PID6)
inactive: [1] 0.056 | crizotinib -0.399 | [2] -0.113 | [3] 0.146 | gandotinib -0.192 | [4] -0.06 | doramapimod -0.15 | ispinesib -0.095

UBAP1 isoform 4 (UniProt Q9NZ09)
inactive: [1] -0.003 | crizotinib -0.008 | [2] 0.07 | [3] 0.023 | gandotinib 0.009 | [4] 0.082 | doramapimod 0.044 | ispinesib -0.046

Reprinted from the results shown (four entries):
UBA1 (UniProt P22314)
inactive: [1] 0.127 | crizotinib -0.338 | [2] 0.091 | [3] 0.017 | gandotinib -0.068 | [4] 0.148 | doramapimod -0.031 | ispinesib -0.11

TUBAL3 (UniProt A6NHL2)
inactive: [1] -0.097 | crizotinib -0.128 | [2] 0.161 | [3] 0.02 | gandotinib -0.165 | [4] -0.02 | doramapimod 0.113 | ispinesib -0.108

TTI2 (UniProt Q6NXR4)
inactive: [1] -0.066 | crizotinib -0.155 | [2] 0.028 | [3] 0.121 | [4] 0.142 | doramapimod 0.013 | ispinesib -0.204

UBE2K (UniProt D6RDM7)
inactive: [1] 0.214 | crizotinib 0.074 | [2] 0.193 | [3] 0.02 | duvelisib 0.243 | tozasertib -0.134 | [4] -0.379 | doramapimod 0.007 | ispinesib -0.101

Later entries

TSPAN31 (UniProt Q12999)
inactive: [1] 0.059 | crizotinib 0.035 | [2] 0.028 | [3] 0.11 | duvelisib 0.007 | tozasertib 0.028 | [4] -0.053 | doramapimod 0.149

UBE2J1 (UniProt Q9Y385)
inactive: [1] 0.06 | crizotinib -0.172 | [2] 0.026 | [3] -0.043 | gandotinib -0.151 | [4] -0.01 | doramapimod -0.26 | ispinesib -0.016

TTI1 (UniProt O43156)
inactive: [1] 0.075 | crizotinib -0.143 | [2] 0.003 | [3] 0.059 | gandotinib -0.119 | [4] 0.033 | doramapimod 0.059 | ispinesib -0.204

TST (UniProt Q16762)
inactive: [1] -0.016 | crizotinib -0.119 | [2] 0.062 | [3] 0.299 | duvelisib 0.11 | [4] -0.041 | doramapimod -0.007

TUBA8 (UniProt Q9NY65)
inactive: [1] -0.076 | crizotinib 0.069 | [2] -0.548 | [3] 0.816 | gandotinib 0.144 | tozasertib -0.117 | doramapimod 0.532 | ispinesib -0.545

UBA52 (UniProt P62987)
inactive: [1] -0.065 | crizotinib -0.02 | [3] 0.364 | gandotinib 0.44 | doramapimod 0.118 | ispinesib -0.165
active: [2] -0.909
